Experimental data from PubChem BioAssay AID1273 (Columbia University Molecular Screening Center, 2008).
The list shows a part of the results. The main result of the screen is listed elsewhere. These columns were measured beside it and carry no call. Compounds called inactive in the main read-out are mostly missing here.

test: insulin gene promoter suppression in islet cells – imaging, TRM-6 cells (human fetal islet line), eGFP reporter, cell count, primary screen (AID 1273;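 also: cells exposed to compound for 48 h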); settings: measured here: cell count, toxicity, at 2 µM, reporter expression induced with tamoxifen

Compound	normalized cell count [%]
CCCCN1CCc2c1nc1ccc(Br)cc1c2N	127
CC(C)NC(=O)c1onc(CSc2ccc(F)cc2)c1C(=O)O	42.6
C/C=C/CSc1nc2c(c(=O)[nH]c(=O)n2C)n1CCC	98.4
CC(C)(C)C(=O)Nc1ccc(S(=O)(=O)c2ccc(NC(=O)C(C)(C)C)cc2)cc1	89.6
Cc1ccc(-n2c(=O)cc(N3CC(C)CC(C)C3)[nH]c2=O)cc1 (stereo not drawn)	88.7
CC(C)C(c1nnnn1C1CCCCC1)N1CCCc2ccccc21 (stereo not drawn)	114
CCNC(=S)N=Nc1c(O)[nH]c2ccc(C(C)C)cc12	118
Cc1nc2ccccc2c2oc(C(=O)NCCN3CCCCC3C)cc12 (stereo not drawn)	149
c1csc(-c2cn3ccc4ccccc4c3n2)c1	60.9
Cc1cc(C(=O)NCC2COc3ccccc3O2)c2ccccc2n1 (stereo not drawn)	104
O=C(CN1C(=O)NC2(CCCC2)C1=O)Nc1cccc(-c2nnc3n2CCCCC3)c1	124
CCOC(=O)CS(=O)(=O)c1ccc2ccccc2c1	123
O=C(CCl)Nc1cc(-c2ccccc2)nn1-c1ccccc1	127
CS(=O)(=O)N(CC(=O)N1CCCC1)c1ccc(OCc2ccccc2)cc1	44.9
C(=N\Nc1ncnc2ccccc12)/c1ccccc1	50.6
O=C(CCCSc1ccccc1)Nc1nc(-c2ccco2)c(-c2ccco2)s1	72.8
COc1ccc(CN2CCN(C(=O)CC(C)C)CC2)c2ccccc12	101
O=c1[nH]c(CN2CCN(CCO)CC2)nc2ccccc12	18.6
CC(C)(C)NC(=O)C(c1ccco1)N(C(=O)Cn1nnc(-c2ccc(F)cc2)n1)c1ccccc1 (stereo not drawn)	84.4
Cc1cccc2sc(NNC(=O)c3ccc(S(=O)(=O)N4CCCC(C)C4)cc3)nc12 (stereo not drawn)	83.1
COc1ccc2nc(-c3cccc(N)c3)[nH]c2c1	150
CCCc1c(C)[nH]c2ccccc2c1=O	122
COc1ccc(CNC(=O)C2CC(c3cccc(OC)c3)=NO2)cc1 (stereo not drawn)	73.2
COc1ccc2c(c1)C(C)CC(C)(C)N2C(=O)NC1CCCCC1 (stereo not drawn)	98.1

Of the compounds above, 2 have two or more sulfur atoms.
Compound	normalized cell count [%]
O=C(CCCSc1ccccc1)Nc1nc(-c2ccco2)c(-c2ccco2)s1	72.8
Cc1cccc2sc(NNC(=O)c3ccc(S(=O)(=O)N4CCCC(C)C4)cc3)nc12 (stereo not drawn)	83.1

More results follow.

Compound	normalized cell count [%]
c1ccc(CSCc2nc3ccccc3[nH]2)cc1	147
CCCn1c(=S)[nH]c2cc(C(=O)NCC3CCCO3)ccc2c1=O (stereo not drawn)	61.5
CCOC(=O)/C=C1\NC(C)(C)Cc2cc(OC)c(OC)cc21	53.8
O=C(NC(Cc1ccc2c(c1)OCO2)C(=O)N1CCCC1C(=O)O)c1ccccc1 (stereo not drawn)	125
CCOC(=O)N1CCN(C(=O)CCN2C(=O)COc3ccccc32)CC1	89.7
CCCCOc1ccc(C(=O)C(CN2CCOCC2)c2ccccc2)cc1 (stereo not drawn)	82.5
COCCNC(=O)Cn1c(=O)n(CCCCCC(=O)NCc2ccc3c(c2)OCO3)c(=O)c2sccc21	99.2
CCCCn1cnc2c(cnn2-c2ccc(F)cc2)c1=O	91.7
O=S(=O)(Nc1ccc(S(=O)(=O)N2CCCCCC2)cc1)c1cccs1	85.9
Cc1nn(-c2ccccc2)c(C)c1/C=N/Nc1nc2ccccc2[nH]1	89.3
COc1cccc(/C=N/N2CCN(C)CC2)c1	94.2
O=C(CCn1c(=S)oc2ccccc21)N1CCCCC1	119
Cc1ccc(S(=O)(=O)c2c(C)nn(C(C)(C)C)c2OC(=O)C2CCCC2)cc1	70
CCOc1ccc(Nc2nc(N)nc(CN(C)C3CCCCC3)n2)cc1	103
COc1ccc(C(OCC2CO2)c2ccc(OC)cc2)cc1 (stereo not drawn)	108
CCc1nnc(NC(=O)CSc2nnc(-c3ccoc3C)n2-c2ccccc2)s1	98.6
O=C(c1cccs1)N1CCC(c2ccccc2)C1 (stereo not drawn)	76.1
COc1ccccc1NS(=O)(=O)c1cc(N)ccc1N1CCCCC1	98.5
O=C(Nc1cccc(Cl)c1)Nc1nccs1	97.8
COc1cccc(N2CCN(Cc3nc4ccccc4c(=O)[nH]3)CC2)c1	39.7
Cc1ccc(C)c(SCC(=O)NC(=O)Nc2ccc3c(c2)OCCO3)c1	74.3
Cc1ccc(NC(=O)c2cnn(-c3ccccc3)c2NC(=O)c2ccco2)cc1C	115
O=C(/C=C/c1ccc(N2CCCCC2)c([N+](=O)[O-])c1)c1ccc(O)cc1	87.9
CCCCCCN1C2=NCCN2c2ccccc21	138

Taken from above:
normalized cell count [%], `O=C(c1cccs1)N1CCC(c2ccccc2)C1` (stereo not drawn) is entered as 76.1
normalized cell count [%], `CCCn1c(=S)[nH]c2cc(C(=O)NCC3CCCO3)ccc2c1=O` (stereo not drawn) is entered as 61.5
normalized cell count [%], `COc1ccc(C(OCC2CO2)c2ccc(OC)cc2)cc1` (stereo not drawn) is entered as 108

(more compounds)

Compound	normalized cell count [%]
CCNc1nc(N)nc(-c2cc(Cl)ccc2O)n1	74.1
CC(C)N1CC(C(=O)Nc2nc3ccccc3s2)CC1=O (stereo not drawn)	80.8
COc1ccc(OC)c(-n2c(SCC(=O)N3CCc4ccccc43)nc3c(c2=O)SCC3)c1	62.4
O=C(N/C(=C\c1cccs1)C(=O)N1CCOCC1)c1cccs1	87.4
O=C(Oc1cccnc1)c1ccccc1[N+](=O)[O-]	102
O=C(Nc1ccccc1)N1CC=C(c2ccccc2)CC1	89.3
c1cncc(-c2nc3ccccc3[nH]2)c1	132
O=C(Cn1nc(-c2ccccc2)ccc1=O)NCC1COCCO1 (stereo not drawn)	16.2
c1ccc(-c2ccccc2-c2nc(-c3ccncc3)no2)cc1	38.1
O=C(O)c1cn(-c2ccccc2)c(=O)c2ccccc12	168
COC(=O)c1ccccc1NC(=O)N1CCCC1	125
O=C(O)c1cc(-c2cccs2)nc2cc3c(cc12)OCCO3	159
COc1ccc(S(=O)(=O)N2CCCC2C(=O)Nc2ccc(C(C)=O)cc2)cc1 (stereo not drawn)	90.2
COc1ccc(-c2nc(N3CCC(C)CC3)[nH]c(=O)c2C#N)cc1	33.9
COc1ccc(OC)c(CNC(=O)Cc2c(C(=O)O)[nH]c3ccc(Cl)cc23)c1	94.2
O=C(CSC1=NCCS1)Nc1ccc(S(=O)(=O)N2CCCCCC2)cc1	112
COc1ccccc1N1CCN(C(=O)c2n[nH]c3ccccc23)CC1	152
O=C(Nc1ccsc1C(=O)N1CCCC1)c1ccccc1	181
N#CCCn1cc(/C=C(\C#N)c2nc3ccccc3s2)c(-c2ccc(F)cc2)n1	50.6
COc1ccc(C2=NOC(C(=O)Nc3cc(Br)ccc3O)C2)cc1OC (stereo not drawn)	32.2
O=C(COC(=O)Cc1ccsc1)Nc1ccccc1	84.1
c1ccc2c(c1)NC(c1ccncc1)n1c-2nc2ccccc21 (stereo not drawn)	80.1
Cc1nn2c(Nc3ccc(F)cc3)c3c(nc2c1-c1ccccc1)CCC3	159
COc1ccc(OC)c2[nH]c(=O)c(CCNC(=O)C3CCCCC3)cc12	102

Compound	normalized cell count [%]
CN(C)c1ncnc2c1ncn2C1OC(CO)C(O)C1O (stereo not drawn)	101
Cc1nn(C)cc1CNC(=O)COc1ccc(Cl)cc1Cl	147
CCN(CC)S(=O)(=O)c1cccc(NC(=O)c2ccccc2Br)c1	33.3
COc1ccc(/C=N/n2c(N)nc3ccccc32)cc1OC	112
CCOC(=O)c1c(N)nn(C(=O)C(C)C)c1-c1ccc(OC)cc1	96.5
COc1ccc2c(C)cc(=O)[nH]c2c1	121
O=C(Nc1ccc(N2CCN(c3ccccc3)CC2)c(F)c1)C1CC1	139
CCCN1CN(Cc2ccco2)c2nc3ccccc3n2C1	107
CCc1nc(N(CC)CC)c2oc3ccccc3c2n1	146
O=C(COC(=O)CCSc1ccc(Cl)cc1)NCc1ccccc1Cl	92.7
CCc1nnc(NC(=O)CSc2nnc(COc3cccc(C)c3)o2)s1	62.4
O=C(Nc1ccccc1Cl)OCc1cncs1	84.8
Cc1nc(N/N=C/c2ccc(O)cc2)c2cnn(-c3ccccc3)c2n1	36.9
COCCCNC(=O)c1c(NC(=O)C2COc3ccccc3O2)sc2c1CCCC2 (stereo not drawn)	56.1
CCOc1ccc(NC(=O)c2ccc3snnc3c2)cc1	144
Cc1sc2nc(SCC(=O)NCc3cccs3)[nH]c(=O)c2c1C	136
O=c1[nH]c(-c2ccccn2)cc2ccccc12	165
Cc1nc2cc(Cl)ccc2n1CCO	145
CCOc1ccc(NC(=S)c2ccncc2)cc1	139
O=c1[nH]c2cccnc2n1Cc1ccccc1	117
CCOc1ccc(C(=O)OCCN(CC)CC)cc1	25.2
CC(C)Sc1nnc2n(CCc3ccccc3)c(=O)c3c4c(sc3n12)COC(C)(C)C4	29.3
CC(=O)c1cnc(Nc2cccc(C)c2)s1	126
COc1ccc(/C=C/C(=O)CC(O)(c2ccccc2)C(F)(F)F)cc1 (stereo not drawn)	96.4

Compound	normalized cell count [%]
c1ccc2nc3c(cc2c1)CCCCCC3	126
O=C(OCC(=O)N1CCCC1)c1cncc(Br)c1	9.19
COc1ccccc1N/N=C/c1ccc2c(c1)OCO2	148
Cn1cc(SCC(=O)O)c2ccccc21	118
COc1cc(OC)c(NC(=O)c2ccoc2C)cc1Cl	95.6
COc1ccc(OC)c2[nH]c(=O)c(CCNC(=O)c3ccc(S(=O)(=O)N(C)C)cc3)cc12	87.2
Cc1ccnc(SCC(=O)c2ccc(Br)cc2)c1C#N	161
CCOC(=O)N1CCC(c2cc(=O)n3[nH]c(-c4ccccc4)cc3n2)CC1	105
COc1ccccc1-c1cc(C(F)(F)F)nc(S(=O)(=O)CCCC(=O)Nc2cccnc2Cl)n1	73.8
Nc1nc(SCC(=O)NCc2ccc3c(c2)OCO3)n[nH]1	94.7
COC(=O)C1=C(C)N=C2SC(C#N)=C(N)N2C1c1cccc(OC)c1 (stereo not drawn)	2.8
Cc1cccc(NC(=O)CN2C(=O)N/C(=C/c3cc(C)n(C)c3C)C2=O)c1	134
O=C(Nc1ccc(Cl)cc1)N1CC=CCC1	122
CCC(NC(=O)COc1ccc([N+](=O)[O-])cc1)c1ccccc1 (stereo not drawn)	95.7
O=C(O)c1ccccc1Sc1c([N+](=O)[O-])cc(C(F)(F)F)cc1[N+](=O)[O-]	127
O=C(NCCc1ccc(F)cc1)N1CCOCC1	99.5
Nc1c2c(nc3ccc(Br)cc13)N(Cc1ccccc1)CC2	63.3
Cc1ccc(S(=O)(=O)Oc2ccc(C)cc2/C=N/N=C2\NC(=O)C(C)S2)cc1 (stereo not drawn)	40.6
Cc1ccc(-n2c(C)csc2=N)cc1	136
Cc1cc(C)n2nc(Cc3ccccc3)nc2n1	123
Cc1nn(-c2nc3ccccc3s2)c(N)c1-c1ccc(Cl)cc1	111
Cc1c(CNC(=O)c2cnn3c2NC(c2ccc(Br)cc2)CC3C(F)(F)F)cnn1C (stereo not drawn)	25.6
